In this test the target is Flag-tagged Caveolin-1 (UniProt Q03135). As to the kind of experiment: affinity purification with mass spectrometry; Flag-tagged CAV1 overexpressed in HEK293 cells; proteins that interacted with CAV1 obtained by pulldown; protein profile analysis.

Sequences of proteins named here, by UniProt entry; tags and fusion partners are left off.
UniProt Q03135: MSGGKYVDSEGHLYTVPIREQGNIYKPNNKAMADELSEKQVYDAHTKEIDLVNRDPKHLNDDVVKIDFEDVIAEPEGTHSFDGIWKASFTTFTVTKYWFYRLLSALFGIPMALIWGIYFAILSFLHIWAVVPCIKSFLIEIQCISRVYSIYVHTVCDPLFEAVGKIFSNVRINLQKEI
UniProt Q99497: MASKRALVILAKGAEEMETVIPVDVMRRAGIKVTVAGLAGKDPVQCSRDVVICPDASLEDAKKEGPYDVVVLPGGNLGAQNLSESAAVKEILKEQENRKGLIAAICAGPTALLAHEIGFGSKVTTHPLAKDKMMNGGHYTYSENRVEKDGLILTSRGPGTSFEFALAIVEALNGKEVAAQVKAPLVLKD

No constants are given. Whether binding was seen depends on the method and setting. Binding seen in cells or lysates may run through a third protein. A yes stands for co-enrichment or nearness to the bait. Other partners may have been found.

“Parkinson disease 7 (DJ-1) (from UniProt Q99497 1-189)”: the binding result is “binds”.
